Publication PMC10667520
No constants are given. Whether binding was seen depends on the method and setting. In cells and extracts the contact can be indirect. Where a sequence is shown, tags or fusion partners need not be part of it.

Biological target: T1, SLC35D3 (solute carrier family 35, member D3), His-tagged (UniProt Q5M8T2)
T1 sequence: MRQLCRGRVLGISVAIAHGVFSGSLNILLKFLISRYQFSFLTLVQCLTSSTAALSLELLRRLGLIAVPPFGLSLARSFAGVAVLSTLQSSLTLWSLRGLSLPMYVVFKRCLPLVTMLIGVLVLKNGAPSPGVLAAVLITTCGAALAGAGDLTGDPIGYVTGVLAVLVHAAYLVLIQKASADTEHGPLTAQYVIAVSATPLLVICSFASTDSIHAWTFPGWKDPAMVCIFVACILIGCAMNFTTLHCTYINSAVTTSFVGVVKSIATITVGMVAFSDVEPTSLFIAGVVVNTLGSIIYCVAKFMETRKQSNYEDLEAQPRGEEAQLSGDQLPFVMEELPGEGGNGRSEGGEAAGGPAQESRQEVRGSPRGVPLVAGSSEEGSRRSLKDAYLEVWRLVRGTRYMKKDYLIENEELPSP
Assay: co-IP; HEK293T cells 48 h after transfection, lysed in IP lysis buffer; lysates incubated with antibodies at 4 °C overnight, protein A/G beads 1 h at room temperature; immunoblot

binding: no binding
Substance: myc-tagged NOTCH1 intracellular domain (NICD) (domain or fragment)
